Data as given in paper PMC4284759.
No constants are given. Whether binding was seen depends on the method and setting. Binding seen in cells or lysates may run through a third protein. Some entries that bind do so weakly or less than the wild type.

Protein sequences, listed by entry. Tags and fused reporters are not part of them.
UniProt Q8N122: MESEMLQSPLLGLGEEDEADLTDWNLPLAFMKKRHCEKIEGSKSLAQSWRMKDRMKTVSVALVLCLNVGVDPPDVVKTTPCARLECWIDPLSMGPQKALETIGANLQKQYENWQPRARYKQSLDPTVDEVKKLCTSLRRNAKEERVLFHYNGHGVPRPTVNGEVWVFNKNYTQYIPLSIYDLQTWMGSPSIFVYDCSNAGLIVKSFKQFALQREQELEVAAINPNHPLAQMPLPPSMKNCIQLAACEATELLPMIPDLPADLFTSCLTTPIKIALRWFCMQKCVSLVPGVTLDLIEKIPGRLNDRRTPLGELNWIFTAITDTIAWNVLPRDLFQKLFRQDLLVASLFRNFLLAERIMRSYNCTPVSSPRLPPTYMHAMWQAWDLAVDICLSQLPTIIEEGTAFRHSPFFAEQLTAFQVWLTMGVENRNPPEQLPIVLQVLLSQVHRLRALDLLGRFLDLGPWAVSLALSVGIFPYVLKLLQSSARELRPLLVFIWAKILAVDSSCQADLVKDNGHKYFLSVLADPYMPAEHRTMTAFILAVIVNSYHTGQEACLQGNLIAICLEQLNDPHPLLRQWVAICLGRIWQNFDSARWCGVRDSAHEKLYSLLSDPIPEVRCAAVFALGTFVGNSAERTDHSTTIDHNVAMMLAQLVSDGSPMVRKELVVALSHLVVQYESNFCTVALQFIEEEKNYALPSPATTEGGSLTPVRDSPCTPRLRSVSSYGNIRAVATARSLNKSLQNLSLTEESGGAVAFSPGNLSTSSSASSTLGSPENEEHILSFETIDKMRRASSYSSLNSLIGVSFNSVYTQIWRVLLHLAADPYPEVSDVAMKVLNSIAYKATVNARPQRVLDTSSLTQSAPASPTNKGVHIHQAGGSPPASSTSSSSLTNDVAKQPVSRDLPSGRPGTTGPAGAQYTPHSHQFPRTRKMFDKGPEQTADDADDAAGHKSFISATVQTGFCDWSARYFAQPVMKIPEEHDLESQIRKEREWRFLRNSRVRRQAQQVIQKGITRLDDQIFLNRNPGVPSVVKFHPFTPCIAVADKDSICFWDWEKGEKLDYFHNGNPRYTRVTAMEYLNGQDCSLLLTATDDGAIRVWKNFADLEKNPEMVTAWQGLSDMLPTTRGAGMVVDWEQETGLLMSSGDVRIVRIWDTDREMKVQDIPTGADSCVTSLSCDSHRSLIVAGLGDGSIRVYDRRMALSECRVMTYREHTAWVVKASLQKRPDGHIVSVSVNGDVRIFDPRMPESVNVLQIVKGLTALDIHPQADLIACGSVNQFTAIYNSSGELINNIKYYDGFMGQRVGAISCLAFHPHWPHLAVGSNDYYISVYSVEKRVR
UniProt Q6R327: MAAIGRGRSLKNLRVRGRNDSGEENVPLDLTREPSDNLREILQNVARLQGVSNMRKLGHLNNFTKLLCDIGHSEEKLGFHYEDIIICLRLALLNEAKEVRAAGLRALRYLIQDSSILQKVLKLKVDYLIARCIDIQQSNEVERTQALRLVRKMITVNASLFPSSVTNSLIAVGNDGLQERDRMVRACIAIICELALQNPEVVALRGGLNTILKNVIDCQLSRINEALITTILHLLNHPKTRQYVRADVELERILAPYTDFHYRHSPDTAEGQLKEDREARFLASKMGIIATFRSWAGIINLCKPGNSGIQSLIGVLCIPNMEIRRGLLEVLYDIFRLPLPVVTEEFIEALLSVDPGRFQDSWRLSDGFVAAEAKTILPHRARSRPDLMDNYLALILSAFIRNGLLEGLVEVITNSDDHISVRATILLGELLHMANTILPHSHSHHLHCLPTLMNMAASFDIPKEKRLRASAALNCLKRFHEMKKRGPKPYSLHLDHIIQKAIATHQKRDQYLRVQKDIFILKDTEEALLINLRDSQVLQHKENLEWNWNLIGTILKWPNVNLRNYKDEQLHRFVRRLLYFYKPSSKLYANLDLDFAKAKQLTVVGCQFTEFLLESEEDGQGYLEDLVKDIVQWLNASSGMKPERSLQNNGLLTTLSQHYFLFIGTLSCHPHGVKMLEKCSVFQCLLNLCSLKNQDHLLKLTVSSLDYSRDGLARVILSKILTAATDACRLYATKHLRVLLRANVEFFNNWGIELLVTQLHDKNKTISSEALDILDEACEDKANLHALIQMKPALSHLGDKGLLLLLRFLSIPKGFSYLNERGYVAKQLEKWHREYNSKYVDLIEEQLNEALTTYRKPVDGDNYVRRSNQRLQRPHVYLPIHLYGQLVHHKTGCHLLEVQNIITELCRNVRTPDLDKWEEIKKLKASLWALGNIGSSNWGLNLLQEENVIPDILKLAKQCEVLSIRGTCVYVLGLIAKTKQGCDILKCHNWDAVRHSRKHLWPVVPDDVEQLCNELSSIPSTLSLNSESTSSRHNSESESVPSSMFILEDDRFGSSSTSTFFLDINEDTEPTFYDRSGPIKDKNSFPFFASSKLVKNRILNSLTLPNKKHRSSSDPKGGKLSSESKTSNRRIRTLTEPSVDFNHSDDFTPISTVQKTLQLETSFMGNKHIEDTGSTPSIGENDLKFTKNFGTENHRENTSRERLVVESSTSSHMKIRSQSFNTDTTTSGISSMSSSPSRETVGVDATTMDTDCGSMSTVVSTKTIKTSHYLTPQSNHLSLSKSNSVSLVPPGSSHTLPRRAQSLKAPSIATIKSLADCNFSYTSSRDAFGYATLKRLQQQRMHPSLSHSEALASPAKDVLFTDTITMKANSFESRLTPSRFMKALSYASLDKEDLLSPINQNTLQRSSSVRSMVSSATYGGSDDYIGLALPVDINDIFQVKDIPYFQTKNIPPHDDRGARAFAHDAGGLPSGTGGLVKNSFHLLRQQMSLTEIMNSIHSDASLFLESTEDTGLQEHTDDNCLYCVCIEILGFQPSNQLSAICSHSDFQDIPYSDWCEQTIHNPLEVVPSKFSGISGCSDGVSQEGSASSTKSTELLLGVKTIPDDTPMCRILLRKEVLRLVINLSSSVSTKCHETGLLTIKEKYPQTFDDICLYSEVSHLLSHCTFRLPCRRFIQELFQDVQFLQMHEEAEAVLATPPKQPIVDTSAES

T1: enhancer of mRNA decapping protein 4 (Edc4) (human (endogenous in CCRF-CEM)) (UniProt Q6P2E9)
T1 sequence: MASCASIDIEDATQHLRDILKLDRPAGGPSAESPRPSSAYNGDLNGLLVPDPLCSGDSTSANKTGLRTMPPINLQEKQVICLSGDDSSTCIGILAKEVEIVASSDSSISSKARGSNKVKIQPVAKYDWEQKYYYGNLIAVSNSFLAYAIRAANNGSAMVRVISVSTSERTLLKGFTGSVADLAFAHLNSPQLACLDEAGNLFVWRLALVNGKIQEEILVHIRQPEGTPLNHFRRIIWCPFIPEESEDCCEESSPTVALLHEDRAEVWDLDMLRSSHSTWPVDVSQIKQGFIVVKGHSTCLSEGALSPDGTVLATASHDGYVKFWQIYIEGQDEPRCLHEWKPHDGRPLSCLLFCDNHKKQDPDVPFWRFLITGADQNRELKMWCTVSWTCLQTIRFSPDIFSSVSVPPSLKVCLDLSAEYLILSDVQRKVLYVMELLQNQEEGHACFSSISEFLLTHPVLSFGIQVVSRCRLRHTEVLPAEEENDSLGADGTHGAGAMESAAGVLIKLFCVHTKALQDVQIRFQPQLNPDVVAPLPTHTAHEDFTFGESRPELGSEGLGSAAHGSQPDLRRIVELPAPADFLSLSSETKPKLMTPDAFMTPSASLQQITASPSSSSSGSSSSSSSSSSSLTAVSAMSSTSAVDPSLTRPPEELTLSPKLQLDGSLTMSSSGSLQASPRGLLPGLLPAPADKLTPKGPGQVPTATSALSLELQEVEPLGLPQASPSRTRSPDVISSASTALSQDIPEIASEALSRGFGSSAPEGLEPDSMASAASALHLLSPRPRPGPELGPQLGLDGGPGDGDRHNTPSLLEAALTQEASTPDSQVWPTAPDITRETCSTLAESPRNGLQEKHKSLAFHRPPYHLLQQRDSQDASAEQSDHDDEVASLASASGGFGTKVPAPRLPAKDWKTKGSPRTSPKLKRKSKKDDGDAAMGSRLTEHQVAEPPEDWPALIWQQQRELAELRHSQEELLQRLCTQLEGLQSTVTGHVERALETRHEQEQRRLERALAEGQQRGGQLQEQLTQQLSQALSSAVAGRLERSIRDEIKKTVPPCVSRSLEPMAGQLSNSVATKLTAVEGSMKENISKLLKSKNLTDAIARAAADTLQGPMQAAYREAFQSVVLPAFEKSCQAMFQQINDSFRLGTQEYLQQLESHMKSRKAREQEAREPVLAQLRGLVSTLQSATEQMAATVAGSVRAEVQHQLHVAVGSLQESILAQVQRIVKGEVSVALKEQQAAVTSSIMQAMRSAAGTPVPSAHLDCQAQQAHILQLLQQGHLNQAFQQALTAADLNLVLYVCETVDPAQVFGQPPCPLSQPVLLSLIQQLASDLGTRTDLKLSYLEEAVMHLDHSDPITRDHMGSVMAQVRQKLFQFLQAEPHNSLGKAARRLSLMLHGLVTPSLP


Legend:
[1] = biological target: T1, enhancer of mRNA decapping protein 4 (Edc4) (human (endogenous in CCRF-CEM)); test: co-IP; endogenous proteins from CCRF-CEM lysate in 0.3% CHAPS buffer; raptor, Edc4 or rictor antibody with Dynabeads G, overnight at 4 °C; immunoblot of the elutes; mock control without antibody; also DMSO-treated cells
myc-tag raptor = myc-tag raptor (UniProt Q8N122); test: co-IP; CCRF-CEM cells transiently transfected with myc-tag raptor pRK5 plasmid (48 h), lysed in 0.3% CHAPS buffer; myc-tag monoclonal antibody conjugated beads overnight at 4 °C; immunoblot for endogenous Edc4
[2] = biological target: regulatory associated protein of mTOR (raptor) (human (endogenous in CCRF-CEM)) (UniProt Q8N122); test: co-IP; endogenous proteins from CCRF-CEM lysate in 0.3% CHAPS buffer; raptor, Edc4 or rictor antibody with Dynabeads G, overnight at 4 °C; immunoblot of the elutes; mock control without antibody; also DMSO-treated cells
[3] = biological target: rapamycin insensitive companion of mTOR (rictor) (human (endogenous in CCRF-CEM)) (UniProt Q6R327); test: as above
[4] = biological target: regulatory associated protein of mTOR (raptor) (human (endogenous in CCRF-CEM)) (UniProt Q8N122); test: co-IP; CCRF-CEM cells treated with rapamycin for one hour, lysed with CHAPS buffer; endogenous raptor IP, immunoblot for Edc4

binding [1] | binding (myc-tag raptor) | binding [2] | binding [3] | binding [4] | Molecule
binds |  |  |  |  | regulatory associated protein of mTOR (raptor) (from UniProt Q8N122 1-1335)
 | binds | binds | no binding | binds weakly | enhancer of mRNA decapping protein 4 (Edc4) (protein, UniProt Q6P2E9 1-1401) MASCASIDIEDATQHLRDILKLDRPAGGPSAESPRPSSAYNGDLNGLLVPDPLCSGDSTSANKTGLRTMPPINLQEKQVICLSGDDSSTCIGILAKEVEIVASSDSSISSKARGSNKVKIQPVAKYDWEQKYYYGNLIAVSNSFLAYAIRAANNGSAMVRVISVSTSERTLLKGFTGSVADLAFAHLNSPQLACLDEAGNLFVWRLALVNGKIQEEILVHIRQPEGTPLNHFRRIIWCPFIPEESEDCCEESSPTVALLHEDRAEVWDLDMLRSSHSTWPVDVSQIKQGFIVVKGHSTCLSEGALSPDGTVLATASHDGYVKFWQIYIEGQDEPRCLHEWKPHDGRPLSCLLFCDNHKKQDPDVPFWRFLITGADQNRELKMWCTVSWTCLQTIRFSPDIFSSVSVPPSLKVCLDLSAEYLILSDVQRKVLYVMELLQNQEEGHACFSSISEFLLTHPVLSFGIQVVSRCRLRHTEVLPAEEENDSLGADGTHGAGAMESAAGVLIKLFCVHTKALQDVQIRFQPQLNPDVVAPLPTHTAHEDFTFGESRPELGSEGLGSAAHGSQPDLRRIVELPAPADFLSLSSETKPKLMTPDAFMTPSASLQQITASPSSSSSGSSSSSSSSSSSLTAVSAMSSTSAVDPSLTRPPEELTLSPKLQLDGSLTMSSSGSLQASPRGLLPGLLPAPADKLTPKGPGQVPTATSALSLELQEVEPLGLPQASPSRTRSPDVISSASTALSQDIPEIASEALSRGFGSSAPEGLEPDSMASAASALHLLSPRPRPGPELGPQLGLDGGPGDGDRHNTPSLLEAALTQEASTPDSQVWPTAPDITRETCSTLAESPRNGLQEKHKSLAFHRPPYHLLQQRDSQDASAEQSDHDDEVASLASASGGFGTKVPAPRLPAKDWKTKGSPRTSPKLKRKSKKDDGDAAMGSRLTEHQVAEPPEDWPALIWQQQRELAELRHSQEELLQRLCTQLEGLQSTVTGHVERALETRHEQEQRRLERALAEGQQRGGQLQEQLTQQLSQALSSAVAGRLERSIRDEIKKTVPPCVSRSLEPMAGQLSNSVATKLTAVEGSMKENISKLLKSKNLTDAIARAAADTLQGPMQAAYREAFQSVVLPAFEKSCQAMFQQINDSFRLGTQEYLQQLESHMKSRKAREQEAREPVLAQLRGLVSTLQSATEQMAATVAGSVRAEVQHQLHVAVGSLQESILAQVQRIVKGEVSVALKEQQAAVTSSIMQAMRSAAGTPVPSAHLDCQAQQAHILQLLQQGHLNQAFQQALTAADLNLVLYVCETVDPAQVFGQPPCPLSQPVLLSLIQQLASDLGTRTDLKLSYLEEAVMHLDHSDPITRDHMGSVMAQVRQKLFQFLQAEPHNSLGKAARRLSLMLHGLVTPSLP
